Source: the supplement of paper PMC8728848
Some of the results follow.

Legend:
Experiment in all cases: glycan array binding signal (z-score within array); higher = stronger binding
Conditions in all cases: glycan notation: IUPAC condensed, linker removed
Gal(b1-4)Glc = target: Gal(b1-4)Glc
Procedure, shortened: (§1)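 Glycan array binding is given as a within-array Z-score, which can be read as non-binding when negative. The arrays, 3228 of them, came from the Consortium for Functional Glycomics database and were retained only where the protein sequence was available. Z-scores were averaged across arrays of the same protein sequence at different concentrations or buffers and across linkers.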

Gal(b1-4)Glc6S = target: Gal(b1-4)Glc6S
Procedure, shortened: as §1

Gal(b1-4)GlcNAc = target: Gal(b1-4)GlcNAc
Procedure, shortened: as §1

[1] = target: Gal(b1-4)GlcNAc(a1-6)Gal(b1-4)GlcNAc
Procedure, shortened: as §1

Gal(b1-4)GlcNAc(b1-2)Man = target: Gal(b1-4)GlcNAc(b1-2)Man
Procedure, shortened: as §1

[2] = target: Gal(b1-4)GlcNAc(b1-2)Man(a1-3)Man(b1-4)GlcNAc(b1-4)GlcNAc
Procedure, shortened: as §1

[3] = target: Gal(b1-4)GlcNAc(b1-2)Man(a1-3)[Gal(b1-4)GlcNAc(b1-2)Man(a1-6)]Man(b1-4)GlcNAc(b1-4)GlcNAc
Procedure, shortened: as §1

[4] = target: Gal(b1-4)GlcNAc(b1-2)Man(a1-3)[Gal(b1-4)GlcNAc(b1-2)Man(a1-6)]Man(b1-4)GlcNAc(b1-4)[Fuc(a1-6)]GlcNAc
Procedure, shortened: as §1

[5] = target: Gal(b1-4)GlcNAc(b1-2)Man(a1-3)[Gal(b1-4)GlcNAc(b1-2)Man(a1-6)][Gal(b1-4)GlcNAc(b1-4)]Man(b1-4)GlcNAc(b1-4)[Fuc(a1-6)]GlcNAc
Procedure, shortened: as §1

[6] = target: Gal(b1-4)GlcNAc(b1-2)Man(a1-3)[Gal(b1-4)GlcNAc(b1-2)Man(a1-6)][GlcNAc(b1-4)]Man(b1-4)GlcNAc(b1-4)[Fuc(a1-6)]GlcNAc
Procedure, shortened: as §1

[7] = target: Gal(b1-4)GlcNAc(b1-2)Man(a1-3)[GlcNAc(b1-2)Man(a1-6)]Man(b1-4)GlcNAc(b1-4)GlcNAc
Procedure, shortened: as §1

[8] = target: Gal(b1-4)GlcNAc(b1-2)Man(a1-3)[GlcNAc(b1-4)][Gal(b1-4)GlcNAc(b1-2)Man(a1-6)]Man(b1-4)GlcNAc(b1-4)GlcNAc
Procedure, shortened: as §1

[9] = target: Gal(b1-4)GlcNAc(b1-2)Man(a1-3)[Man(a1-6)]Man(b1-4)GlcNAc(b1-4)GlcNAc
Procedure, shortened: as §1

[10] = target: Gal(b1-4)GlcNAc(b1-2)Man(a1-6)Man(b1-4)GlcNAc(b1-4)GlcNAc
Procedure, shortened: as §1

[11] = target: Gal(b1-4)GlcNAc(b1-2)Man(a1-6)[GlcNAc(b1-2)Man(a1-3)]Man(b1-4)GlcNAc(b1-4)GlcNAc
Procedure, shortened: as §1

[12] = target: Gal(b1-4)GlcNAc(b1-2)Man(a1-6)[Man(a1-3)]Man(b1-4)GlcNAc(b1-4)GlcNAc
Procedure, shortened: as §1

[13] = target: Gal(b1-4)GlcNAc(b1-2)[Gal(b1-4)GlcNAc(b1-4)]Man(a1-3)[Gal(b1-4)GlcNAc(b1-2)Man(a1-6)]Man(b1-4)GlcNAc(b1-4)GlcNAc
Procedure, shortened: as §1

[14] = target: Gal(b1-4)GlcNAc(b1-2)[Gal(b1-4)GlcNAc(b1-4)]Man(a1-3)[Gal(b1-4)GlcNAc(b1-2)[Gal(b1-4)GlcNAc(b1-6)]Man(a1-6)]Man(b1-4)GlcNAc(b1-4)GlcNAc
Procedure, shortened: as §1

[15] = target: Gal(b1-4)GlcNAc(b1-2)[Gal(b1-4)GlcNAc(b1-4)]Man(a1-3)[GlcNAc(b1-4)][Gal(b1-4)GlcNAc(b1-2)Man(a1-6)]Man(b1-4)GlcNAc(b1-4)GlcNAc
Procedure, shortened: as §1

[16] = target: Gal(b1-4)GlcNAc(b1-2)[Gal(b1-4)GlcNAc(b1-4)]Man(a1-3)[GlcNAc(b1-4)][Gal(b1-4)GlcNAc(b1-2)[Gal(b1-4)GlcNAc(b1-6)]Man(a1-6)]Man(b1-4)GlcNAc(b1-4)GlcNAc
Procedure, shortened: as §1

[17] = target: Gal(b1-4)GlcNAc(b1-2)[Gal(b1-4)GlcNAc(b1-6)]Man(a1-6)[Gal(b1-4)GlcNAc(b1-2)Man(a1-3)]Man(b1-4)GlcNAc(b1-4)GlcNAc
Procedure, shortened: as §1

[18] = target: Gal(b1-4)GlcNAc(b1-2)[Gal(b1-4)GlcNAc(b1-6)]Man(a1-6)[Gal(b1-4)GlcNAc(b1-2)Man(a1-3)]Man(b1-4)GlcNAc(b1-4)[Fuc(a1-6)]GlcNAc
Procedure, shortened: as §1

[19] = target: Gal(b1-4)GlcNAc(b1-2)[Gal(b1-4)GlcNAc(b1-6)]Man(a1-6)[GlcNAc(b1-4)][Gal(b1-4)GlcNAc(b1-2)Man(a1-3)]Man(b1-4)GlcNAc(b1-4)GlcNAc
Procedure, shortened: as §1

[20] = target: Gal(b1-4)GlcNAc(b1-2)[Gal(b1-4)GlcNAc(b1-6)]Man(a1-6)[GlcNAc(b1-4)][Gal(b1-4)GlcNAc(b1-2)[Gal(b1-4)GlcNAc(b1-4)]Man(a1-3)]Man(b1-4)GlcNAc(b1-4)[Fuc(a1-6)]GlcNAc
Procedure, shortened: as §1

[21] = target: Gal(b1-4)GlcNAc(b1-3)Gal(b1-3)GalNAc
Procedure, shortened: as §1

[22] = target: Gal(b1-4)GlcNAc(b1-3)Gal(b1-3)GlcNAc
Procedure, shortened: as §1

[23] = target: Gal(b1-4)GlcNAc(b1-3)Gal(b1-4)Glc
Procedure, shortened: as §1

[24] = target: Gal(b1-4)GlcNAc(b1-3)Gal(b1-4)GlcNAc
Procedure, shortened: as §1

[25] = target: Gal(b1-4)GlcNAc(b1-3)Gal(b1-4)GlcNAc(b1-2)Man(a1-3)[Gal(b1-4)GlcNAc(b1-3)Gal(b1-4)GlcNAc(b1-2)Man(a1-6)]Man(b1-4)GlcNAc(b1-4)GlcNAc
Procedure, shortened: as §1

[26] = target: Gal(b1-4)GlcNAc(b1-3)Gal(b1-4)GlcNAc(b1-2)Man(a1-3)[Gal(b1-4)GlcNAc(b1-3)Gal(b1-4)GlcNAc(b1-2)Man(a1-6)]Man(b1-4)GlcNAc(b1-4)[Fuc(a1-6)]GlcNAc
Procedure, shortened: as §1

[27] = target: Gal(b1-4)GlcNAc(b1-3)Gal(b1-4)GlcNAc(b1-2)[Gal(b1-4)GlcNAc(b1-3)Gal(b1-4)GlcNAc(b1-6)]Man(a1-6)[Gal(b1-4)GlcNAc(b1-3)Gal(b1-4)GlcNAc(b1-2)Man(a1-3)]Man(b1-4)GlcNAc(b1-4)GlcNAc
Procedure, shortened: as §1

[28] = target: Gal(b1-4)GlcNAc(b1-3)Gal(b1-4)GlcNAc(b1-2)[Gal(b1-4)GlcNAc(b1-3)Gal(b1-4)GlcNAc(b1-6)]Man(a1-6)[Gal(b1-4)GlcNAc(b1-3)Gal(b1-4)GlcNAc(b1-2)Man(a1-3)]Man(b1-4)GlcNAc(b1-4)[Fuc(a1-6)]GlcNAc
Procedure, shortened: as §1

[29] = target: Gal(b1-4)GlcNAc(b1-3)Gal(b1-4)GlcNAc(b1-3)Gal(b1-4)GlcNAc
Procedure, shortened: as §1

[30] = target: Gal(b1-4)GlcNAc(b1-3)Gal(b1-4)GlcNAc(b1-3)Gal(b1-4)GlcNAc(b1-2)Man(a1-3)[Gal(b1-4)GlcNAc(b1-3)Gal(b1-4)GlcNAc(b1-3)Gal(b1-4)GlcNAc(b1-2)Man(a1-6)]Man(b1-4)GlcNAc(b1-4)GlcNAc
Procedure, shortened: as §1

[31] = target: Gal(b1-4)GlcNAc(b1-3)Gal(b1-4)GlcNAc(b1-3)Gal(b1-4)GlcNAc(b1-2)Man(a1-3)[Gal(b1-4)GlcNAc(b1-3)Gal(b1-4)GlcNAc(b1-3)Gal(b1-4)GlcNAc(b1-2)Man(a1-6)]Man(b1-4)GlcNAc(b1-4)[Fuc(a1-6)]GlcNAc
Procedure, shortened: as §1

[32] = target: Gal(b1-4)GlcNAc(b1-3)Gal(b1-4)GlcNAc(b1-3)Gal(b1-4)GlcNAc(b1-2)[Gal(b1-4)GlcNAc(b1-3)Gal(b1-4)GlcNAc(b1-3)Gal(b1-4)GlcNAc(b1-6)]Man(a1-6)[Gal(b1-4)GlcNAc(b1-3)Gal(b1-4)GlcNAc(b1-3)Gal(b1-4)GlcNAc(b1-2)Man(a1-3)]Man(b1-4)GlcNAc(b1-4)[Fuc(a1-6)]GlcNAc
Procedure, shortened: as §1

[33] = target: Gal(b1-4)GlcNAc(b1-3)Gal(b1-4)GlcNAc(b1-3)Gal(b1-4)GlcNAc(b1-3)Gal(b1-4)GlcNAc(b1-2)Man(a1-3)[Gal(b1-4)GlcNAc(b1-3)Gal(b1-4)GlcNAc(b1-3)Gal(b1-4)GlcNAc(b1-3)Gal(b1-4)GlcNAc(b1-2)Man(a1-6)]Man(b1-4)GlcNAc(b1-4)GlcNAc
Procedure, shortened: as §1

B1: OS9 (Arabidopsis thaliana) (protein)
chain: MRGSHHHHHHGMASMTGGQQMGRDLYDDDDKSRLQIFPAHLVGTFSRNNREPKYKIEFLPEDSPFHPGDNLESMVMLDKHGNRFLCYLPKEEKATSGWTSSQQNISTVMMETQQLVKLKTPDELLQPLSEKCLFRQEGWWSYEFCHQKYVRQLHVEDENKIVQEFFLGTFDPEATAAFNQTVSDASTDASQRYHSHVYTNGTTCDLTGSPREVEVRFVCAETRAMVTSITELSTCKYALTVQCPTLCKHPLFQLEKPVSHTIHCNAIPVEEDATRNKEEQAVDESPKMIADS
Which results are given for B1?
glycan array binding signal (z-score) (Gal(b1-4)Glc): -0.65; glycan array binding signal (z-score) (Gal(b1-4)Glc6S): 0.066; glycan array binding signal (z-score) (Gal(b1-4)GlcNAc): -1.02; glycan array binding signal (z-score) [1]: 0.297; glycan array binding signal (z-score) (Gal(b1-4)GlcNAc(b1-2)Man): -0.591; glycan array binding signal (z-score) [2]: -0.282; glycan array binding signal (z-score) [3]: -0.393; glycan array binding signal (z-score) [4]: 1.63; glycan array binding signal (z-score) [5]: -0.28; glycan array binding signal (z-score) [6]: 0.877; glycan array binding signal (z-score) [7]: -1.35; glycan array binding signal (z-score) [8]: -0.453; glycan array binding signal (z-score) [9]: -0.928; glycan array binding signal (z-score) [10]: -0.928; glycan array binding signal (z-score) [11]: 0.081; glycan array binding signal (z-score) [12]: -1.68; glycan array binding signal (z-score) [13]: 0.895; glycan array binding signal (z-score) [14]: -1.1; glycan array binding signal (z-score) [15]: -0.134; glycan array binding signal (z-score) [16]: -0.3; glycan array binding signal (z-score) [17]: 0.108; glycan array binding signal (z-score) [18]: -0.47; glycan array binding signal (z-score) [19]: -0.016; glycan array binding signal (z-score) [20]: -0.26; glycan array binding signal (z-score) [21]: -0.687; glycan array binding signal (z-score) [22]: -0.836; glycan array binding signal (z-score) [23]: -0.54; glycan array binding signal (z-score) [24]: -0.603; glycan array binding signal (z-score) [25]: 1.39; glycan array binding signal (z-score) [26]: 1.58; glycan array binding signal (z-score) [27]: 0.742; glycan array binding signal (z-score) [28]: -0.255; glycan array binding signal (z-score) [29]: 0.535; glycan array binding signal (z-score) [30]: 0.733; glycan array binding signal (z-score) [31]: -0.901; glycan array binding signal (z-score) [32]: 0.003; glycan array binding signal (z-score) [33]: 1.22
